According to PubChem BioAssay AID504834 (National Center for Advancing Translational Sciences (NCATS), 2011):
The whole screen tested about 320,000 compounds, of which about 22,000 (6.9%) were called active. The shares of active, inactive and inconclusive entries below differ from those in the screen. The call rests on the fitted dose curve; in most records, active means well fitted inhibition curve with a large enough effect; inconclusive means small, poorly fitted or top-dose-only effect, or another doubt; inactive means no such curve, though single readings can be large or run the other way. Where the call is inconclusive, the potency comes from a doubtful curve fit.

Assay: Primary qHTS for delayed death inhibitors of the malarial parasite plastid, 96 hour incubation
Conditions: P. falciparum luciferase reporter growth; series mostly up to 28.7 µM
Outline: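 Compounds incubated with erythrocytes infected by luciferase-expressing P. falciparum (2% hematocrit, 0.05% parasitemia final) for 96 hours, 37 C in 5% CO2. Growth inhibition scored as decreased luciferase luminescence.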
Potency means the concentration at half of the fitted maximal effect.

Structure (SMILES)	Potency
O=c1cc(-c2ccc3c(c2)OCO3)oc2ccccc12	inconclusive: 5.22 µM [inhibitor, partial curve, poor fit]
COc1cccc(C(=O)Nn2cnnc2)c1OC	active: 2.08 µM
Cc1ccc(-c2nn(-c3cccc(F)c3)cc2CNCCc2ccncc2)o1	inconclusive: 18.5 µM [inhibitor, single point]
COc1ccccc1NC(=O)C1CCC(CNc2c(N3CCCCC3)c(=O)c2=O)CC1 (centres undefined)	inactive
CCN(CC)c1nc(C(F)(F)F)nc2c1nnn2Cc1ccccc1	inconclusive: 16.5 µM [inhibitor, partial curve, poor fit]
COc1ccc(CCNC(=O)CSc2ccc(-c3ccco3)nn2)cc1	inactive
Cc1ccc(CNC(=O)CN(C)S(=O)(=O)c2cccc3cccnc23)cc1	inconclusive: 13.1 µM [inhibitor, single point]
O=C(NC(=S)N1CCN(c2ccc([N+](=O)[O-])cc2Cl)CC1)c1ccco1	inconclusive: 16.5 µM [inhibitor, partial curve, poor fit]
CC(C)[C@H](NC(=O)OCc1ccccc1)C(=O)OCC(=O)Nc1ccc(N2CCOCC2)cc1	inactive
O=C1C2C3C=CC(C4CC34)C2C(=O)N1/N=C/c1ccc(-c2cccc([N+](=O)[O-])c2)o1 (centres undefined)	inconclusive: 4.15 µM [inhibitor, partial curve, poor fit]
N#Cc1ccc(C23CC4(C2)[C@H](CN(Cc2ccc(C(F)(F)F)cc2)[C@@H]4c2ccccc2)C3c2ccccc2)cc1 (some centres undefined)	inconclusive: 4.15 µM [inhibitor, single point]
O=C(CN1CCN(C(=O)c2ccco2)CC1)Nc1ccccc1-c1ccccc1	inactive
COCCCNC(=O)CSc1nc2cc3c(cc2c(=O)n1CCCC(=O)NCc1ccc(OC)cc1)OCO3	active: 10.4 µM
Cc1ccc2c(c1)c1c3n2CCN(C(=O)CCl)C3CCC1 (centres undefined)	inconclusive: 18.5 µM [inhibitor, single point]
Cc1ccn2c(NC(=O)c3ccco3)c(-c3ccccc3)nc2c1	active: 4.15 µM
O=C(COC(=O)CCC(=O)c1cccs1)Nc1ccccc1[N+](=O)[O-]	inactive
CCNC(=O)NC(=O)COC(=O)C1CSC2(C)CCC(=O)N12 (centres undefined)	inconclusive: 2.08 µM [inhibitor, partial curve, poor fit]
O=C(COc1ncnc2ccccc12)N1CCOCC1	inactive
COc1ccc(-c2noc(CCC(=O)Nc3cc(Cl)c(OC)cc3OC)n2)cc1	inconclusive: 0.0029 µM [inhibitor, full curve, poor fit]
CC(=O)Nc1ccc(NS(=O)(=O)c2cn(C)c(=O)n(C)c2=O)cc1	inactive
CSc1ccccc1OCc1cc(C(=O)N(C)C(C)c2ccccn2)no1 (centres undefined)	inconclusive: 20.8 µM [inhibitor, partial curve, poor fit]
CC(C)C(c1nnnn1C(C)(C)C)N1CCN(c2cccc(Cl)c2)CC1 (centres undefined)	inactive
C(#Cc1ccccc1)CN1CCCCC1	inactive
Cc1ccc(OC(=O)COc2ccccc2)c(-n2nc3ccccc3n2)c1	inactive
CCCCN(C)CCNC(=S)Nc1ccc2nc(N3CCN(CC)CC3)cc(C)c2c1	inconclusive: 9.28 µM [inhibitor, single point]

Structure (SMILES)	Potency
CCN(CC(=O)Nc1ccccc1OC)C(=O)c1cc(S(=O)(=O)N2CCCCCC2)ccc1OC	active: 5.22 µM
CC(=O)NCCC(=O)N(Cc1ccccc1)c1nc2c(C)cccc2s1	inconclusive: 4.65 µM [inhibitor, full curve, poor fit]
CSC1=C(C#N)C(c2ccc(C)s2)CC(=O)N1 (centres undefined)	active: 2.33 µM
CN(Cc1c(F)cccc1Cl)C(=O)c1cccc(S(=O)(=O)NCc2ccccc2)c1	inconclusive: 3.7 µM [inhibitor, full curve, poor fit]
CC(C)C(=O)OC/C(O)=C(\C#N)c1nc2ccccc2[nH]1	inactive
COc1ccc(NC(=O)CSCC(=O)NCc2cccc(C(F)(F)F)c2)cc1	inconclusive: 18.5 µM [inhibitor, single point]
O=C(CN(CC1CCCO1)C(=O)CNS(=O)(=O)c1ccc(Cl)cc1)NCc1ccco1 (centres undefined)	inconclusive: 8.28 µM [inhibitor, single point]
O=[N+]([O-])c1ccccc1S(=O)(=O)N1CCN(c2ccccn2)CC1	inconclusive: 11.7 µM [inhibitor, single point]
CC12CCC(=O)N1C(C(=O)NNC(=O)c1ccccc1Cl)CS2 (centres undefined)	inactive
CSc1ccc(S(=O)(=O)NCC(=O)OCC(=O)N2CCCC2=O)cc1[N+](=O)[O-]	inactive
O=C(c1ccc(F)cc1)N1CCN(c2ccc([N+](=O)[O-])cc2-n2cccc2)CC1	inconclusive: 3.29 µM [inhibitor, partial curve, poor fit]
O=C1NC(c2ccccc2)=NC1(Nc1ccccn1)C(F)(F)F (centres undefined)	inconclusive: 18.5 µM [inhibitor, single point]
CC(=O)c1ccc(NC(=O)c2ccc(-n3cncn3)c([N+](=O)[O-])c2)cc1	inconclusive: 0.0131 µM [inhibitor, full curve, poor fit]
O=C(CSc1nnc(CNC(=O)c2ccccc2)o1)NCCc1ccccc1	inconclusive: 4.15 µM [inhibitor, single point]
CCN(c1ccccc1)S(=O)(=O)c1ccc(C(=O)N(CCCN(C)C)c2nc3cc4c(cc3s2)OCO4)cc1	inactive
CC(=O)NCCC(=O)Nc1ccc(F)cc1C	inactive
CCOc1ccc2nc(N3CCCC(C(=O)NC4CCCC4)C3)sc2c1 (centres undefined)	inconclusive: 9.28 µM [inhibitor, single point]
O=C(CN1C(=O)NC2(CCc3ccccc32)C1=O)Nc1ccc(Br)cc1F (centres undefined)	inactive
CCc1c(C)nc2ncnn2c1Nc1ccc(C#N)c(Cl)c1	inconclusive: 7.38 µM [inhibitor, partial curve, poor fit]
COc1cccc(NC(=O)CN2C(=O)CSc3nc(C)cc(C)c32)c1	inactive
CC(=O)Oc1ccc(-c2cccc(C(=O)OCC(=O)N(C)c3ccccc3)c2)cc1	active: 14.7 µM
COc1cccc(/C(C)=N/N=C(\C)c2cccc(OC)c2)c1	inactive
O=C(CCS(=O)(=O)c1ccccc1)Nc1ncc([N+](=O)[O-])s1	inactive
COc1ccc(C2N(c3ccccn3)C(=O)C3CCCN32)c(OC)c1 (centres undefined)	inconclusive: 6.57 µM [inhibitor, partial curve]
COc1ccccc1NC(=O)C1CCCN1S(=O)(=O)c1ccc(Cl)cc1 (centres undefined)	inconclusive: 10.4 µM [inhibitor, partial curve]

Structure (SMILES)	Potency
CCOC(=O)N/N=C\c1ccc(C)s1	inactive
COc1cc(OC)c2c(O)c3c(c(-c4c5c(c(O)c6c(OC)cc(OC)cc46)CO[C@@H](C)[C@H]5O)c2c1)[C@H](O)[C@H](C)OC3	inactive
O=C(Nc1ccc(Cl)c(Cl)c1)c1ccncc1	active: 14.7 µM
Cc1cc(C)c(-c2c(O)c3c(n(C)c2=O)CC(C)(C)CC3=O)c(C)c1	active: 5.86 µM
CCn1c(Cc2ccccc2)nnc1SCc1cccc(C(=O)O)c1	inactive
Cc1[nH]nc(SCC(=O)Nc2ccc(C#N)cc2)c1[N+](=O)[O-]	inconclusive: 11.7 µM [inhibitor, partial curve, poor fit]
CCOc1ccc(CN2CCC(n3nccc3NC(=O)c3ccccc3OC)CC2)cc1	inconclusive: 10.4 µM [inhibitor, single point]
Nc1ccccc1-[n+]1c(-c2ccccc2)cc(-c2ccccc2)cc1-c1ccccc1	active: 2.08 µM
O=C(NC1CCN(Cc2ccccc2)CC1)c1ccc(Cn2c(=S)[nH]c3ccc(N4CCOCC4)cc3c2=O)cc1	inactive
CC(C)Oc1ccc(S(=O)(=O)N2CCOCC2)cc1NC(=O)c1cc([N+](=O)[O-])ccc1N1CCOCC1	active: 11.7 µM
Cc1ccccc1OCC(=O)N(Cc1ccc(N(C)C)cc1)C1CCS(=O)(=O)C1 (centres undefined)	inconclusive: 4.15 µM [inhibitor, partial curve, poor fit]
CC(C)(C)OC(=O)NCCCCCc1cn([C@@H](CO)C(=O)NCCCCCCCCCCC(=O)N2CCN(C(=O)OC(C)(C)C)CC2)nn1	active: 2.94 µM
C=CCOc1ccc(/C=C/C(=O)OCC(=O)N(C)CC(=O)Nc2ccccc2Cl)cc1	inactive
CCC1(CC)C(=O)NC(=Nc2cccc(C(F)(F)F)c2)NC1=O	inactive
CSC(=CC(=O)c1ccc(F)cc1)SC	inactive
CC(C)C(NC(=O)c1ccccc1Br)c1ccccc1 (centres undefined)	inconclusive: 1.17 µM [inhibitor, partial curve, poor fit]
COc1ccc(/C=C(/NC(=O)c2ccccc2)C(=O)NCCN2CCOCC2)cc1OC	inconclusive: 5.22 µM [inhibitor, full curve, poor fit]
O=[N+]([O-])c1ccc(-c2ccc(S(=O)(=O)N3CCOCC3)cc2)cc1	inactive
CN(CC(=O)Nc1ccccc1Br)C(=O)CCc1ccccc1	inactive
O=C(COC(=O)c1c2ccccc2cc2ccccc12)NCC(F)(F)F	inactive
COc1cccc(CNS(=O)(=O)c2ccc3c(c2)CCN3C(=O)C2CC2)c1	inconclusive: 1.65 µM [inhibitor, full curve, poor fit]
COC(=O)c1ccc(CNC(=O)CSC(C)C(=O)Nc2cc(C)on2)cc1 (centres undefined)	inactive
Cc1cc(NC(=O)c2cccc(Cl)c2)n[nH]1	inactive
CCCc1c(-c2ccc(O)cc2)nn(-c2ccc(O)cc2)c1-c1ccc(O)cc1	inactive

Fetched one by one from the entries so far, two records:
Structure (SMILES)	Potency
COC(=O)c1ccc(CNC(=O)CSC(C)C(=O)Nc2cc(C)on2)cc1 (centres undefined)	inactive
CN(Cc1c(F)cccc1Cl)C(=O)c1cccc(S(=O)(=O)NCc2ccccc2)c1	inconclusive: 3.7 µM [inhibitor, full curve, poor fit]

Gathered by group, the compounds so far containing a thiophene ring, fused or not (3)
Structure (SMILES)	Potency
O=C(COC(=O)CCC(=O)c1cccs1)Nc1ccccc1[N+](=O)[O-]	inactive
CSC1=C(C#N)C(c2ccc(C)s2)CC(=O)N1 (centres undefined)	active: 2.33 µM
CCOC(=O)N/N=C\c1ccc(C)s1	inactive
